From PubChem BioAssay AID1347076 (National Center for Advancing Translational Sciences (NCATS), 2019)
Screen size: about 400,000 compounds; about 13,000 (3.2%) were called active. The inconclusive results got no clear call from the source; some entries with a clear call stand among them for comparison. The call rests on the fitted dose curve; in most records, active means well fitted cell-killing curve with a large enough effect; inconclusive means small, poorly fitted or top-dose-only effect, or effect the other way; inactive means flat fitted curve, though single readings scatter. Potencies beside an inconclusive call are fits to weak or partial responses and may not hold up.

Assay: qHTS assay for MDR1-selective chemotherapeutics: Primary screen using the drug-selected MDR subline cells KB-V1; further: nearly all actives have a fitted effect of over 60% in size
Conditions: KB-V1 MDR cells viability, CellTiter-Glo, 72 h; activity change, negative = cytotoxicity: at 46.1 µM (top of the series)
Outline: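 KB-V1 cells (P-gp-expressing MDR subline of KB-3-1) in phenol-red-free DMEM with 10% FBS were exposed to library compounds over a concentration series for 72 h at 37 degrees C. Viability read by CellTiter-Glo luminescence; concentration-effect curves fitted after normalization.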
On the % scale 0 is the no-effect control and ±100 the full control effect; potency means the concentration at half of the fitted maximal effect.

SMILES	Potency	activity change, negative = cytotoxicity
CCOC(=O)/C(=N\Nc1ccccc1Cl)N1CCN(C)CC1	inconclusive: 32.6 µM [cytotoxic, partial curve, poor fit]	
Fc1ccc2c(c1)C(c1ccncc1)=NNC(c1cccnc1)=N2	inactive	
Cc1ccc(C(=O)NC(=S)Nc2ccc(S(=O)(=O)N3CCN(C)CC3)cc2)cc1	active: 23.1 µM	
CCOc1cccc(/C=N/NC(=O)c2ccc3c(c2)OCCO3)c1O	inconclusive: 29.1 µM [cytotoxic, partial curve, poor fit]	
O=C(Oc1c(Cl)cc(Cl)c2cccnc12)c1cccc([N+](=O)[O-])c1	inactive	
Cc1ccc(S(=O)(=O)N(C)C)cc1NC(=O)C(C)OC(=O)c1cc[n+]([O-])cc1 (configuration not stated)	inconclusive: 18.4 µM [rising, single point]	
Cc1cccc(NC(=S)NCC23C=CC(O2)C2C(=O)N(c4ccc(Cl)cc4)C(=O)C23)c1 (configuration not stated)	inconclusive: 11.6 µM [cytotoxic, partial curve, poor fit]	
COC(=O)C1=C/C=C\CN(C(c2ccccc2)c2ccccc2)/C=C\1C(=O)OC	inconclusive: 6.51 µM [cytotoxic, partial curve]	
CCn1c2ccccc2c2cc(/C(C)=N/O)ccc21	inconclusive: 13 µM [cytotoxic, partial curve, poor fit]	
Cc1c(NC(=O)c2ccco2)c(=O)n(-c2ccccc2)n1C	inactive	
Cc1c(C)n(Cc2ccccc2)c2ncnc(N)c12	inactive	
Cc1cccc(N(C)c2cc(C)nc3nc(C)nn23)c1	inconclusive: 29.1 µM [cytotoxic, single point]	
CN(C)S(=O)(=O)c1ccc(-c2csc(-c3cccnc3)n2)cc1	inconclusive: 23.1 µM [cytotoxic, single point]	
CN1CCN(c2ccc(NC(=O)COc3ccccc3[N+](=O)[O-])cc2)CC1	inconclusive: 29.1 µM [cytotoxic, single point]	
O=C(OCc1cn([C@H]2C[C@H](c3ccccc3)N(CC3CCCCC3)C[C@@H]2O)nn1)c1ccccc1	inconclusive: 18.4 µM [cytotoxic, single point]	
CN1CCN(c2ccc(S(=O)(=O)N3CCCCC3)cc2NC(=O)COc2ccc(F)cc2)CC1	inconclusive: 20.6 µM [cytotoxic, single point]	
Cc1cccc(C(=O)NCC(=O)NC2CCC(C)CC2)c1 (configuration not stated)	inactive	
CCCn1c(CCC(=O)Nc2cccc(C)c2C)nc2cccnc21	inconclusive: 0.651 µM [cytotoxic, full curve]	
CC(C)NS(=O)(=O)c1ccc(OCC(=O)Nc2ccc3c(c2)OCO3)c(Cl)c1	inconclusive: 20.6 µM [cytotoxic, partial curve]	
CC(=O)Oc1ccc2c(c1)OC(c1ccccc1)CC21CC(C)(C)NC(=S)N1 (configuration not stated)	inconclusive: 32.6 µM [rising, single point]	
O=C1/C(=C\c2ccc(Cl)c(Cl)c2)CN(C(=O)CCN2CCOCC2)C/C1=C/c1ccc(Cl)c(Cl)c1	inconclusive: 2.31 µM [cytotoxic, partial curve, poor fit]	

SMILES	Potency	activity change, negative = cytotoxicity
COc1cc(NS(=O)(=O)c2ccc3[nH]c4c(c3c2)CCCC4)cc(OC)c1OC	inconclusive: 29.1 µM [cytotoxic, partial curve, poor fit]	
C=Cc1ccc(Cn2c(C(=O)O)c(CNCCc3ccccc3)c3ccc(C)cc32)cc1	inactive	
CC(C)CCNC(=O)C12CN(Cc3ccccc3)CC1C(c1cccc([N+](=O)[O-])c1)=NO2 (configuration not stated)	inconclusive: 25.9 µM [cytotoxic, single point]	
CN(CCCC(=O)Nc1ccccc1)S(=O)(=O)c1ccc(Cl)cc1	inconclusive: 0.0092 µM [cytotoxic, full curve, poor fit]	
COc1cc(CN2CCc3ccccc3C2)cc([N+](=O)[O-])c1O	inactive	
Cc1ccc2oc(-c3ccc(NC(=O)c4ccncc4)cc3O)nc2c1	inactive	
CCOC(=O)c1nn(-c2ccc(F)cc2)c(-c2ccccc2)c1C(=O)c1ccccc1	inconclusive: 29.1 µM [cytotoxic, single point]	
CCNc1ccc(S(=O)(=O)N(C)C)cc1NCC(=O)Nc1ccc(F)c(Cl)c1	inconclusive: 18.4 µM [cytotoxic, single point]	
CC(C)N(Cc1cn[nH]c1-c1ccc(-c2ccccc2)cc1)Cc1nccn1C	inactive	
CSc1nc(C)cc(/C=C\c2ccccc2)c1C#N	inconclusive: 8.2 µM [cytotoxic, partial curve]	
FC(F)(F)c1cccc(-c2ccn3ncnc3n2)c1	active: 20.6 µM	
COc1ccccc1NC(=S)N(CCc1nc2cc(C)c(C)cc2[nH]1)Cc1cccnc1	inconclusive: 29.1 µM [cytotoxic, single point]	
COc1cc2c(=O)n(Cc3ccccc3)c(=O)n(CC(=O)NCC3CCCO3)c2cc1OC (configuration not stated)	active: 20.6 µM	
CC(C(=O)NC1C=CS(=O)(=O)C1)N1C(=O)/C(=C/c2ccc(Cl)cc2)SC1=S (configuration not stated)		inconclusive: -8.93%
O=C(c1cccc(C(=O)N2CCN(c3ncccn3)CC2)c1)N1CCN(c2ncccn2)CC1	inactive	
CCOC(=O)[C@]12CCCC=C1N(CCC1=CCCCC1)C(=O)[C@H](CC(=O)NCCCOC)C2	inconclusive: 7.31 µM [cytotoxic, partial curve]	
Cc1ccccc1OCCCCn1c(C2CC(=O)N(c3ccccc3Cl)C2)nc2ccccc21 (configuration not stated)	inconclusive: 18.4 µM [rising, partial curve, poor fit]	
O=C(Nc1nc(-c2cccs2)cs1)c1ccc(Cl)s1	inconclusive: 29.1 µM [cytotoxic, single point]	
Cc1ccc(Nc2c(-c3ccc(N4CCOCC4)cc3)nc3c(C)cccn23)cc1	inconclusive: 6.51 µM [cytotoxic, full curve]	
Cc1ccc(S(=O)(=O)c2cc3cc(Br)ccc3oc2=O)cc1	active: 18.4 µM	
O=C(N/N=C/c1sc(N2CCOCC2)nc1-c1ccccc1)c1ccccc1O	inconclusive: 7.31 µM [cytotoxic, partial curve]	

Reformatted comma-delimited: two of the compounds above.
SMILES,Potency,"activity change, negative = cytotoxicity"
CN(CCCC(=O)Nc1ccccc1)S(=O)(=O)c1ccc(Cl)cc1,"inconclusive: 0.0092 µM [cytotoxic, full curve, poor fit]",
CCNc1ccc(S(=O)(=O)N(C)C)cc1NCC(=O)Nc1ccc(F)c(Cl)c1,"inconclusive: 18.4 µM [cytotoxic, single point]",
